From paper PMC4729957, “The Atg1–kinase complex tethers Atg9-vesicles to initiate autophagy” (Nature Communications, 2016) come the findings set out here.

Amino acid sequences for entries named in this document (tags omitted). A change or cut given only in a name is not applied to a line headed by its entry.
UniProt Q06628: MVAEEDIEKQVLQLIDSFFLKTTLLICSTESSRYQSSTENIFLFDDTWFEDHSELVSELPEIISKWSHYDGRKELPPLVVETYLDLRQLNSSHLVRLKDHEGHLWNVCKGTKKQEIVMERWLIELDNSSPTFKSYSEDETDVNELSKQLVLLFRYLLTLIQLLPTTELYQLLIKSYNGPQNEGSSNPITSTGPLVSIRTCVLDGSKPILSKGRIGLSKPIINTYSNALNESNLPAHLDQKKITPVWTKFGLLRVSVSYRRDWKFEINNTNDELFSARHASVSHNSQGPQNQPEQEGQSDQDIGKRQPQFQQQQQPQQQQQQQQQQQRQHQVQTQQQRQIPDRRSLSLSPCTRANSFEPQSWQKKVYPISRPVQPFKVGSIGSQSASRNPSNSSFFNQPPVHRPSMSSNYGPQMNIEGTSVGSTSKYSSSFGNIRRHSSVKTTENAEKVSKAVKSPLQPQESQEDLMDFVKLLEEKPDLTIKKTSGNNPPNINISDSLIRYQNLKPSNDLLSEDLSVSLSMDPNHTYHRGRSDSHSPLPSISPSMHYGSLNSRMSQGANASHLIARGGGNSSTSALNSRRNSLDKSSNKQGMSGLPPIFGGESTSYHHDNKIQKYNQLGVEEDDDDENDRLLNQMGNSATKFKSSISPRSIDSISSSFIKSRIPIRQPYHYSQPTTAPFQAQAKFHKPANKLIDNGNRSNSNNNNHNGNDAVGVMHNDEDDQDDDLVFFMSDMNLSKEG

Results are given in words; binding and its absence hold for the method and conditions named.

Test [1] has as its target monomeric Atg1^PC (Atg1^monoPC) (S. cerevisiae) (UniProt P53104+Q06628+Q06410+Q12421+Q12092). The test can be described thus: SEC; complexes assembled from purified subunits or subcomplexes, 30 min at room temperature, then gel filtration on Superose 6; both purified. (In gel filtration, larger molecules generally elute earlier.)
Test [2] concerns the target T1, Atg17–Atg31–Atg29 trimeric complex (Atg17^TC) (S. cerevisiae) (UniProt Q06410+Q12421+Q12092).
T1 sequence 1: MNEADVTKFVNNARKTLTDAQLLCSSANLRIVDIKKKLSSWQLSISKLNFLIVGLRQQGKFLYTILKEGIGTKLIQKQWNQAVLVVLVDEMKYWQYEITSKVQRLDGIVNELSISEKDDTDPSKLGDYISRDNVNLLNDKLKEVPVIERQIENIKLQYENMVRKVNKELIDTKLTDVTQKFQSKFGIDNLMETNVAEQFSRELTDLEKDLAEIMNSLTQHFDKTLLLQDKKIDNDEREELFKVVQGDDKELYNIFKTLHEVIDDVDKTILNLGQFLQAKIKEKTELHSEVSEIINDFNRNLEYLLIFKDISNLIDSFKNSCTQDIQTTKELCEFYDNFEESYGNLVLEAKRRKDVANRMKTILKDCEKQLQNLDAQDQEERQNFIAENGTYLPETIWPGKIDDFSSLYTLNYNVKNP
T1 sequence 2: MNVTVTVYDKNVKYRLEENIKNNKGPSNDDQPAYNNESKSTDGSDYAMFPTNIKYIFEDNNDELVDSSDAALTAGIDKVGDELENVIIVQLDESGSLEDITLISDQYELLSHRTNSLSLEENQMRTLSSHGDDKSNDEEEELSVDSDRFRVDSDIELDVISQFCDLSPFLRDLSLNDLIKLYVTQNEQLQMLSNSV
T1 sequence 3: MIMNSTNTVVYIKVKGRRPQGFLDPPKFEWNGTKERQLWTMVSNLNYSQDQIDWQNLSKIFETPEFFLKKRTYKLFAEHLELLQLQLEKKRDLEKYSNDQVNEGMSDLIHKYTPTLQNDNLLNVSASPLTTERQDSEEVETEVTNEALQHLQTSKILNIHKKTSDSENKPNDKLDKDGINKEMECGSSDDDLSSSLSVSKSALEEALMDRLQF
Described as above.

Test [3] concerns the target T2, Atg1 (S. cerevisiae), P53104.
T2 chain: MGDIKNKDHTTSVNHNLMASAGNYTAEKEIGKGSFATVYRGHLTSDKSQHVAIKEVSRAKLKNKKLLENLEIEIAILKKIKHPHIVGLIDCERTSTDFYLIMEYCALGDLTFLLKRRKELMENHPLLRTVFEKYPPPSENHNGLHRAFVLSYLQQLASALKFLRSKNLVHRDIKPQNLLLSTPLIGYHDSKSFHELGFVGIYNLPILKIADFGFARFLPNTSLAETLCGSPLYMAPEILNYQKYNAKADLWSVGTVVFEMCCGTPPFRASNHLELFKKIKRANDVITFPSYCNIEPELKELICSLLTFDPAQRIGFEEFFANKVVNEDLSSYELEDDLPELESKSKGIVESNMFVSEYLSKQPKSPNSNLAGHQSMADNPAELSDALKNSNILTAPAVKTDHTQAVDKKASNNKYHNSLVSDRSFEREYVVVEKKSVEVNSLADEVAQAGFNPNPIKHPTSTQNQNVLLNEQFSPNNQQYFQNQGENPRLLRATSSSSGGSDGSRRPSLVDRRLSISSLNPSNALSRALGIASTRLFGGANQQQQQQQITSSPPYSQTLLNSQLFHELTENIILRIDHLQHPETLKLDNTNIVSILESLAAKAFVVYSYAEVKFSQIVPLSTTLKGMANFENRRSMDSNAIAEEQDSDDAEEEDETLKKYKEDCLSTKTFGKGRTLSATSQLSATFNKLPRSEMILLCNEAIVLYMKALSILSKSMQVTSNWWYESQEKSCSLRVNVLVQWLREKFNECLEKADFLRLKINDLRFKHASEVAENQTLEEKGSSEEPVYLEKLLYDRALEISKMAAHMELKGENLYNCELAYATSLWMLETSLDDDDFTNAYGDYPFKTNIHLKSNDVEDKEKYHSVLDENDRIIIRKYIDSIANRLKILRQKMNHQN
The test is described as follows: SEC-MALS; Atg1 injected at 5 mg ml^−1, 50 μl, Superdex-200 Increase 10/300GL; both purified. The following applies: remark: other sources report otherwise.

For test [4], the target named is Atg17^mono (Atg17^1–354) (S. cerevisiae) (UniProt Q06410). The test can be described thus: dynamic light scattering; Stokes radii (RH) of the purified proteins and complexes in solution; both purified.
The target of test [5] is Atg17^1–354-Atg31–Atg29 (Atg17^monoTC) (S. cerevisiae) (UniProt Q06410+Q12421+Q12092). The test is described as above.

For “monomeric Atg1^PC (Atg1^monoPC) (from UniProt P53104 1-897; Q06628 1-738; Q06410 1-354; Q12421 1-196; Q12092 1-213) (complex)”, the binding entry in test [1] was “no binding”.
For the molecule “Atg1–Atg13^SD subcomplex (from UniProt P53104 1-897; Q06628 1-738)”, the binding result in test [2] is on record as “no binding”.

B1: Atg1, P53104 1-897 (enzyme)
chain: T2 chain
modifications: here or on the partner: phosphothreonine at 226 (T226); phosphothreonine at 226 (T226)
Regarding B1, in test [3], the binding entry is “no binding (tested: 5 mg ml^−1)”.

B2: Atg17^mono (Atg17^1–354) (domain or fragment, UniProt Q06410 1-354)
chain: MNEADVTKFVNNARKTLTDAQLLCSSANLRIVDIKKKLSSWQLSISKLNFLIVGLRQQGKFLYTILKEGIGTKLIQKQWNQAVLVVLVDEMKYWQYEITSKVQRLDGIVNELSISEKDDTDPSKLGDYISRDNVNLLNDKLKEVPVIERQIENIKLQYENMVRKVNKELIDTKLTDVTQKFQSKFGIDNLMETNVAEQFSRELTDLEKDLAEIMNSLTQHFDKTLLLQDKKIDNDEREELFKVVQGDDKELYNIFKTLHEVIDDVDKTILNLGQFLQAKIKEKTELHSEVSEIINDFNRNLEYLLIFKDISNLIDSFKNSCTQDIQTTKELCEFYDNFEESYGNLVLEAKRRKD
As to B2, the binding result in test [4] was “no binding”.

B3: Atg17^1–354-Atg31–Atg29 (Atg17^monoTC) (complex, S. cerevisiae)
chain 1: B2 chain
chain 2: T1 sequence 2
chain 3: T1 sequence 3
notes: Atg31, S. cerevisiae BY4741; Atg29, S. cerevisiae BY4741; source: E. coli Rosetta, co-expressed from pST39, purified (Ni-NTA, SEC); not shown: His6, N-terminal, cleaved; copies: + +
As for B3, the binding result in test [5] is recorded as “no binding”.
